Measurements from the supplement of paper PMC12889115.
The list shows a part of the results. Values are raw readings; no control value is given beside them.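 In the initial screen, polymyxin B was used at a concentration that permeabilizes Salmonella's outer membrane but not its inner membrane. Maximum growth was set by DMSO wells with or without polymyxin B. Since plates varied, data were ranked per plate, and compounds giving the lowest OD600 advanced as hits.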

System: Salmonella enterica serovar Typhimurium SL1344
Assay: bacterial growth OD600 after 18 h with compound and polymyxin B; higher = more bacterial growth (less inhibition)
Conditions: 50 µM, Mueller-Hinton broth

Structure (SMILES) | bacterial growth OD600 (polymyxin B 1 µg/mL) | bacterial growth OD600 (polymyxin B 0.75 µg/mL)
COCC1CCCN(C(=O)c2ccc(N[C@H]3CC[C@H](O)CC3)nc2)C1 (stereo not given in full) | 0.973 | 
COc1ccc(CCCN2C(=O)O[C@@H]3CN(c4cc(OC)ncn4)C[C@@H]32)cc1 |  | 0.748
COc1ccc(CCN2CC(NC(=O)C3CCCCC3)CC2=O)cc1 (stereo not given) | 0.842 | 
O=C(Nc1ccc(Oc2ccccc2F)cc1)C1CCN(CC2CC2)CC1 |  | 0.619
Cc1oc(-c2cccc3ccccc23)nc1CN(C)Cc1cccc2ncccc12 |  | 0.382
COc1cc(CC2(CCC(=O)NCC(c3ccccc3)c3ccccc3)CCC(=O)N2)ccc1F (stereo not given) |  | 0.882
CCn1ccnc1CN1CCCC(CCc2cccc(OC)c2)C1 (stereo not given) |  | 0.828
O=C(c1ccc(N2CCCCC2)cc1)N1CC[C@@H](N2CCC(O)CC2)[C@H](O)C1 | 1.18 | 
COCc1nc2cc(NC(=O)Cc3ccccc3)cc(C(=O)NC(C)Cc3cccnc3)c2n1C (stereo not given) |  | 0.826
COC(=O)CCC(=O)N1CCCC(C(=O)Nc2ccc(-c3cccc(F)c3)cc2)C1 (stereo not given) | 1.1 | 
COc1ccc(CC2(CCC(=O)NCC(C)(C)CO)CCC(=O)N2)c2ccccc12 (stereo not given) |  | 0.769
COc1ccc(CN2CC[C@@H](N3CCCCCC3)[C@H](O)C2)cc1C |  | 0.763
CC(C)N(C)c1ccc(C(=O)N2CCCCC2CCn2cccn2)cn1 (stereo not given) | 0.017 | 
CCC(C)CNC(=O)C1CCN(c2nc(C)c3ccc(S(C)(=O)=O)cc3n2)CC1 (stereo not given) |  | 0.866
COc1cccc(-c2nn(-c3ccccc3)cc2CNCC2(C)COC2)c1 | 0.893 | 
CCc1ccc(CN(C)C(=O)CCC2(Cc3ccc(C)cc3)CCC(=O)N2)cc1 (stereo not given) |  | 0.029
Cc1cccc(CNC(=O)C2CC23CCN(C(=O)c2cc(F)cc(F)c2)CC3)n1 (stereo not given) |  | 0.879
Cc1cccc(C2CCCN(C(=O)CCC3(Cc4ccc(Cl)cc4)CCC(=O)N3)C2)c1 (stereo not given) |  | 0.032
O=C(CCn1cccn1)N1CCC(C2CCN(Cc3cccnc3)CC2)C1 (stereo not given) | 0.929 | 
O=C(c1coc(COc2cccc3cnccc23)n1)N1CC[C@@H]2CCCC[C@H]2C1 | 0.001 | 
NC(=O)CCC(=O)N1CCCC1C(=O)Nc1cccc(-c2ccc(F)cc2)c1 (stereo not given) | 0.896 | 
CCN(Cc1ccncc1)C(=O)c1cc(COc2c(C)cccc2C)on1 | 0.894 | 
CCOC(=O)N1CCN(c2nc3nonc3nc2N2CCCCCC2)CC1 | 1.03 | 
COC(=O)[C@@H]1CCCN1C(=O)Cc1ccc(N2CCC(NCc3nonc3C)CC2)cc1 |  | 0.837
Cc1nn(C)c(Cl)c1CN1CCOc2ccc(C(O)Cc3ccccc3)cc2C1 (stereo not given) |  | 0.897
COC(c1ccc2c(c1)CN(C(=O)c1cccc(Cn3cccn3)c1)CCO2)C1CCCCC1 (stereo not given) |  | 0.028
CCOC(=O)C1(Cc2ccccc2)CCCN(Cc2ccc(NC(C)=O)cc2)C1 (stereo not given) | 0.015 | 
CC(=O)c1cccc(OCc2cc(C(=O)N3CCCCC3CO)n[nH]2)c1 (stereo not given) | 0.936 | 
Cc1occc1C(=O)Nc1cnn(CC(=O)N2CCc3c([nH]c4ccccc34)C2C(C)C)c1 (stereo not given) |  | 1.02
COCC(=O)Nc1cnn(-c2cccc(C(=O)N3CCCC(COc4ccccc4F)C3)c2)c1 (stereo not given) |  | 0.709

Some values from the results shown.
bacterial growth OD600 (polymyxin B 1 µg/mL) with CCOC(=O)C1(Cc2ccccc2)CCCN(Cc2ccc(NC(C)=O)cc2)C1 (stereo not given) is entered as 0.015
bacterial growth OD600 (polymyxin B 0.75 µg/mL) with Cc1nn(C)c(Cl)c1CN1CCOc2ccc(C(O)Cc3ccccc3)cc2C1 (stereo not given) is entered as 0.897
